Among all 580,000 compounds or so, about 6,100 (1.1%) were called active. The inconclusive results got no clear call from the source; some entries with a clear call stand among them for comparison. Calls follow the shape of the dose curve; as a rule, active = well fitted inhibition curve with a large enough effect; inconclusive = small, poorly fitted or top-dose-only effect, or another doubt; inactive = no such curve, though single readings can be large or run the other way. A potency beside an inconclusive call is a rough fit, not a confirmed value.
What follows are compounds tested against Polyunsaturated fatty acid lipoxygenase ALOX12 (Homo sapiens) (UniProt P18054) (assay: Primary qHTS assay for inhibitors of human arachidonate 12S-lipoxygenase (ALOX12): Round 2). Details: purified 12hLO, xylenol orange hydroperoxide absorbance; activity change, negative = inhibition: at 108 µM (top of the series) unless noted.
Procedure, shortened: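 Hydroperoxide product was detected by ferrous iron/xylenol orange as the 573 to 405 nm absorbance ratio. Arachidonic acid at 40 uM (final) was turned over for 30 min at room temperature by 150 nM human 12hLO, pH 7.0 Hepes buffer, after 15 min compound preincubation.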
% is scaled to controls: 0 for no effect and ±100 for the full control effect; potency is read from the fitted curve at half-maximal effect.

Chains of the proteins cited; added tags and fusions are not shown.
UniProt P18054, whole entry, looked up: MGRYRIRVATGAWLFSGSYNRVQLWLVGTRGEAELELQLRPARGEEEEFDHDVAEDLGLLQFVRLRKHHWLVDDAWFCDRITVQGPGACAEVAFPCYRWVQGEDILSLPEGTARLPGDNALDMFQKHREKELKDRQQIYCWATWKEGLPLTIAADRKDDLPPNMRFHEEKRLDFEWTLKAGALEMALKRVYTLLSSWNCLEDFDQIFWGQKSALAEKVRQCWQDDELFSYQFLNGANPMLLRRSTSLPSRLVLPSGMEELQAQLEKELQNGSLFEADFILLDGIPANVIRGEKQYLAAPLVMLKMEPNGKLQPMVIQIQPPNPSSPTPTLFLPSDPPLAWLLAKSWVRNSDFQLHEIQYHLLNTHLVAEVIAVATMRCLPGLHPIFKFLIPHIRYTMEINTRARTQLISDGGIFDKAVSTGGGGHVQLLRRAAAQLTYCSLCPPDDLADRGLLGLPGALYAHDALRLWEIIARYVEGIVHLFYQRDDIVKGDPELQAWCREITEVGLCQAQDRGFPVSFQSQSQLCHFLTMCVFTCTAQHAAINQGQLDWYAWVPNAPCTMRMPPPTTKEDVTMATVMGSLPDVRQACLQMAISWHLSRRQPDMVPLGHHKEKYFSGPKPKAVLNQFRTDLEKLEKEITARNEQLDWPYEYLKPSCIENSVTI

Row | Structure (SMILES) | Potency | activity change, negative = inhibition
1 | COc1cc(CNCc2cccc(OC)c2OC)cc(OC)c1 | inconclusive: 0.447 µM [inhibitor, full curve, poor fit] | 
2 | O=C(C1=C[C@H](c2ccc3c(c2)OCO3)C[C@H](OCc2ccc(CO)cc2)O1)N1CCCCCCC1 | inconclusive: 112 µM [inhibitor, single point] | 
3 | CC(C)(O)C1CCCN(C(=O)c2cc(COc3ccccc3F)[nH]n2)C1 (configuration not stated) |  | inactive: 20.6%
4 | CCCc1ccc(C(=O)NNc2ccccc2F)cc1 | inconclusive: 39.8 µM [inhibitor, partial curve, poor fit] | 
5 | CC(C)c1noc(C2Cc3ccccc3N2C(=O)Nc2ccc3c(c2)OCCO3)n1 (configuration not stated) |  | inactive: 8.47%
6 | COc1cc(CC(=O)OC(C)c2ccc(F)cc2)cc(OC)c1OC (configuration not stated) | inconclusive: 1.58 µM [inhibitor, full curve, poor fit] | 
7 | N#Cc1c(NC(=O)CSc2ccccn2)sc2c1CCCC2 | inconclusive: 6.31 µM [inhibitor, partial curve, poor fit] | 
8 | CC(C)COc1cccc(C(=O)Nc2cccc(C(F)(F)F)c2)c1 | inconclusive: 2 µM [inhibitor, full curve] | 
9 | CC(C)NC(=O)C1(c2ccccc2)CC1(Cl)Cl (configuration not stated) |  | inactive: 1.45%
10 | CC(C)C1C(=O)N(Cc2cn(CCC3OCCCO3)nn2)CCS(=O)(=O)N1Cc1ccc(-c2cccc(N(C)C)c2)cc1 (configuration not stated) |  | inactive: 6.4%
11 | CC(C(=O)O)n1nc2ccccc2n1 (configuration not stated) | inconclusive: 39.8 µM [inhibitor, partial curve, poor fit] | 
12 | CN(C)/C=C1/Sc2ccccc2C1=O | inconclusive: 28.2 µM [inhibitor, partial curve, poor fit] | 
13 | CCC(C)OC(=O)c1[nH]c2c(c1C)C(=O)CC(c1ccc(N(C)C)cc1)C2 (configuration not stated) |  | inactive: 7.92%
14 | COCc1nnc(NC(=O)c2ccc(S(=O)(=O)N3CCCc4ccccc43)cc2)o1 |  | inactive: -14.4%
15 | COC(=O)c1cnc(Nc2nc(C(N)Cc3ccc(Cl)cc3)cs2)nc1C(F)(F)F (configuration not stated) | inconclusive: 20 µM [inhibitor, full curve, poor fit] | 
16 | C=CCn1c(NCc2ccccc2O)nc2ccccc21 | inconclusive: 141 µM [inhibitor, single point] | 
17 | Cc1cn([C@H]2C[C@H](O)[C@@H](CCC(=O)NCC3CCCO3)O2)c(=O)[nH]c1=O (some centres not stated) | inconclusive: 126 µM [inhibitor, single point] | 
18 | Cc1ccc(-c2ccc(/C=C(\C#N)C(=O)NC(C)(C)C)o2)cc1 |  | inactive: -3.34%
19 | CN1CC(=O)N(c2ccccc2)Cc2c1ncnc2N1CCc2ccccc2C1 | active: 31.6 µM | 
20 | CC(C)N(Cc1ccccc1)C(=O)c1cnc2ccccc2n1 |  | inactive: -7.31%
21 | CC[C@]12c3[nH]c4cc(-c5ccco5)ccc4c3CCN1C(=O)[C@@H](CC(=O)NCCC1=CCCCC1)C[C@@H]2C(=O)N1CCN(C(=O)C2CC2)CC1 | inconclusive: 50.1 µM [inhibitor, partial curve, poor fit] | 

Random excerpt: two entries already listed
Row | Structure (SMILES) | Potency | activity change, negative = inhibition
10 | CC(C)C1C(=O)N(Cc2cn(CCC3OCCCO3)nn2)CCS(=O)(=O)N1Cc1ccc(-c2cccc(N(C)C)c2)cc1 (configuration not stated) |  | inactive: 6.4%
2 | O=C(C1=C[C@H](c2ccc3c(c2)OCO3)C[C@H](OCc2ccc(CO)cc2)O1)N1CCCCCCC1 | inconclusive: 112 µM [inhibitor, single point] | 

(further entries)

Row | Structure (SMILES) | Potency | activity change, negative = inhibition
22 | CN1CCN(C(C(=O)O)c2cn(CC(=O)O)c3cc(Cl)ccc23)CC1 (configuration not stated) | inconclusive: 39.8 µM [inhibitor, single point] | 
23 | CC(C)Nc1nc(Oc2cccc(Cl)c2Cl)cc(C(F)(F)F)n1 | inconclusive: 44.7 µM [inhibitor, partial curve, poor fit] | 
24 | C[C@H]1C=C(C(=O)N2CCOCC2)O[C@@H](OCc2ccc(CO)cc2)C1 | inconclusive: 35.5 µM [inhibitor, single point] | 
25 | O=C(CSc1nc2cc([N+](=O)[O-])ccc2o1)Nc1cccc(Cl)c1 | inconclusive: 35.5 µM [inhibitor, partial curve, poor fit] | 
26 | NC(=O)c1ccsc1NC(=O)CCS(=O)(=O)c1ccc(Cl)cc1 | inconclusive: 0.199 µM [inhibitor, full curve, poor fit] | 
27 | C[C@@H]1CCCCO[C@H](CN(C)S(=O)(=O)c2cn(C)cn2)[C@@H](C)CN([C@H](C)CO)C(=O)c2cc(NC(=O)CCCN(C)C)ccc2O1 | inconclusive: 100 µM [inhibitor, single point] | 
28 | COCc1cn(C[C@H]2C[C@@H](NC(=O)c3cncnc3)[C@H](O)[C@@H]2O)nn1 | inconclusive: 8.91 µM [inhibitor, full curve, poor fit] | 
29 | O=C(CCc1nc(-c2ccc(Cl)cc2)no1)Nc1cccc(S(=O)(=O)NC2=NCCC2)c1 | inconclusive: 100 µM [inhibitor, partial curve, poor fit] | 
30 | O=C1Nc2ccccc2CC12CCN(CC1CC1)CC2 | inactive | 
31 | COc1ccc(C2=NOC(Cn3nc(C(=O)NCc4cccs4)cc3-c3ccccc3)C2)cc1 (configuration not stated) |  | inactive: -18.3%
32 | CCNC(=O)CN(c1ccccc1OC)S(=O)(=O)c1cccs1 |  | inactive: 9.96%
33 | COc1ccc(/C=C(/NC(=O)c2ccccc2)C(=O)N/N=C/c2sccc2C)cc1 | inconclusive: 79.4 µM [inhibitor, partial curve, poor fit] | 
34 | N#Cc1c(NC(=O)CSc2nc(-c3ccco3)cc(C(F)(F)F)n2)sc2c1CCCC2 | inconclusive: 7.08 µM [inhibitor, full curve, poor fit] | 
35 | CC(C)CCNC(=O)C1CCN(S(=O)(=O)c2ccc(-n3cnnn3)cc2)CC1 |  | inactive: -23%
36 | Cc1ccc(S(=O)(=O)N2C[C@H]3[C@H]4C(=O)N(c5ccccc5)C(=O)[C@H]4C[C@H](OC(=O)NC4CCCC4)[C@@]3(O)C2)cc1 | inconclusive: 70.8 µM [inhibitor, partial curve, poor fit] | 
37 | Cc1ccc(-n2nc3ccc(N)cc3n2)cc1C | active: 44.7 µM | 
38 | COc1ccc(/C(N)=N/OC(=O)c2ccco2)cc1OC |  | inactive: 9%
39 | CCCC1Cc2c(sc(N)c2C#N)CO1 (configuration not stated) | inconclusive: 89.1 µM [inhibitor, partial curve, poor fit] | 
40 | CCOc1ccccc1NC(=O)CCS(=O)(=O)c1ccc2c(c1)CC(C)N2C(C)=O (configuration not stated) | inconclusive: 50.1 µM [inhibitor, partial curve, poor fit] | 
41 | Cc1ccc(/C(O)=C2\C(=O)C(=O)NC2c2ccc(C)cc2)cc1 (configuration not stated) | inconclusive: 1.78 µM [inhibitor, full curve, poor fit] | 
42 | O=C(C1=C[C@@H]2[C@H]3C(=O)N(c4ccc(Cl)cc4)C(=O)[C@H]3[C@@H](C(=O)c3ccc(Cl)cc3)N2C=C1)c1ccccc1 | inconclusive: 56.2 µM [inhibitor, partial curve, poor fit] | 

Row | Structure (SMILES) | Potency | activity change, negative = inhibition
43 | COc1ccc(CNC(=O)CN(Cc2ccco2)C(=O)CNS(=O)(=O)c2ccc(F)cc2)cc1 |  | inconclusive: -32.1% [inhibitor]
44 | COC(=O)C1Cc2c([nH]c3ccccc23)C2(CCN(Cc3ccccc3)CC2)N1 (configuration not stated) | inconclusive: 35.5 µM [inhibitor, partial curve, poor fit] | 
45 | CC(C)CC(NC(=O)c1ccc(Cl)cc1)C(=O)OCc1cc([N+](=O)[O-])cc2c1OCOC2 (configuration not stated) | inconclusive: 3.55 µM [inhibitor, full curve, poor fit] | 
46 | O=C(O)CN1C(=O)S/C(=C\c2ccc3c(c2)OCO3)C1=O | inconclusive: 15.8 µM [inhibitor, full curve, poor fit] | 
47 | CC1(C)C(C(=O)OCC(Cl)(Cl)Cl)N2C(=O)C(NC(=O)Cc3ccccc3)C2S1=O (configuration not stated) | inconclusive: 7.94 µM [inhibitor, partial curve, poor fit] | 
48 | O=C(O)CC1Sc2ccccc2NC1=O (configuration not stated) | inconclusive: 31.6 µM [inhibitor, single point] | 
49 | O=C(O)c1ccc(N/N=C/c2ccc(OC(=O)c3cccc(Cl)c3)cc2)cc1 | inconclusive: 50.1 µM [inhibitor, partial curve, poor fit] | 
50 | CCOC(=O)C1CC(=NO)c2ccc(OC)c(OC)c2C1 (configuration not stated) | inconclusive: 50.1 µM [inhibitor, partial curve, poor fit] | 
51 | CC(=O)Nc1ccc(SCC(=O)c2ccc3c(c2)CCC3)cc1 | inconclusive: 50.1 µM [inhibitor, partial curve, poor fit] | 
52 | CCCC(=O)n1nc(NCc2ccc(OCC)cc2)nc1NCc1ccc(OCC)cc1 | inconclusive: 39.8 µM [inhibitor, partial curve, poor fit] | 
53 | Cc1ccc(C(=O)CC2(O)C(=O)N(CN3CCN(C)CC3)c3ccccc32)s1 (configuration not stated) | inconclusive: 126 µM [inhibitor, single point] | 
54 | Cc1ccc(NS(=O)(=O)c2ccc(NC(=O)c3ccc(Br)o3)cc2)c(C)c1 | inconclusive: 25.1 µM [inhibitor, full curve, poor fit] | 
55 | Cc1ccc(C)c(SCc2nc3sc(C(=O)O)c(C)c3c(=O)[nH]2)c1 | inconclusive: 39.8 µM [inhibitor, partial curve] | 
56 | COC(=O)C1=CN(C2CC2)C=C(C(=O)OC)C1c1ccccc1OC | inconclusive: 56.2 µM [inhibitor, partial curve, poor fit] | 
57 | COc1ccccc1-c1nccc(-n2ccnc2)n1 | inconclusive: 6.31 µM [inhibitor, full curve, poor fit] | 
58 | CN(Cc1cc(Br)cc(Br)c1N)C1CCCCC1 |  | inconclusive: -31.2% [inhibitor] [at 57.4 µM]
59 | COc1ccc2oc(=O)c(C(=O)Nc3ccccc3C)cc2c1 | inconclusive: 56.2 µM [inhibitor, partial curve, poor fit] | 
60 | O=C(c1cccnc1)N1CCC2(CC1)OCCN(Cc1ccccc1)C2=O |  | inactive: 11.5% [at 176 µM]
61 | Cc1ccc(NC(=O)Nc2ccccc2)c(=O)n1CC(=O)NC1CCCCC1 | inconclusive: 56.2 µM [inhibitor, partial curve, poor fit] | 
62 | CCCCCCCCCCS(=O)(=O)N/N=C/c1ccc([N+](=O)[O-])cc1 | inconclusive: 25.1 µM [inhibitor, partial curve, poor fit] | 
